The assay concerns nude mice, LX-1 lung xenograft intrarenal, tumor weight T/C. Put plainly: NCI In Vivo Anticancer Drug Screen. Data for tumor model Human Lung LX-1 Xenograft (intrarenal inoculation) in NU/NU Swiss (nude) mice. The following applies: T/C endpoint: mean tumor weight change, higher T/C = larger tumour; for T/C: evaluated on day 11. The method in brief: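 Tumor-bearing mice receive test compound or vehicle; tumor size is then measured in each group. The treated value is divided by the vehicle value to give T/C.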

The mark [1] stands for this setting: dose: 2400.0 mg/kg/injection, schedule: Q04DX003 (sc), vehicle: saline with Tween-80.
Where [2] appears, read: dose: 100.0 mg/kg/injection, schedule: Q01DX010 (sc), vehicle: Klucel (hydroxypropylcellulose) (HPC).
The mark [3] stands for this setting: dose: 50.0 mg/kg/injection, schedule: Q04DX003 (sc), vehicle: saline with Tween-80.

Each structure is given as a SMILES string. The list shows only some results of the screen, not a fair sample: it gathers tests that were run many times, whatever their T/C, doses with no T/C, and many T/C values between a quarter and a half above the control. Further doses and runs are listed elsewhere. T/C gives the treated animals as a percentage of the vehicle group. Schedule codes are those of the source, read here as Q, the interval in days (D) or hours (H), X, the number of doses. Some T/C values are followed by the survivors on the day toxicity was checked, most often the fifth; where none is given, no animal had died by that day. Some doses have a count of surviving animals in place of a T/C: the source files T/C as zero there, which appears to mark a toxic dose or a test without result, not a measured value. Survivors were counted at the toxicity check, usually on the fifth day, unless a day is given; later deaths do not show. Some doses were run more than once; their values stand side by side, smallest first.

`OCCCN1CCCCC1CO` (stereo not drawn): the T/C by setting is: (dose: 400.0 mg/kg/injection, schedule: Q04DX003 (sc), vehicle: saline) 126 % of control; (dose: 800.0 mg/kg/injection, schedule: Q04DX003 (sc), vehicle: saline) 149 % of control; (dose: 1600.0 mg/kg/injection, schedule: Q04DX003 (sc), vehicle: saline) 135 % of control [5 of 6 alive on day 11].
Take `COC(=O)C12OCC34C(CC5C(C)=CC(=O)C(O)C5(C)C3C(O)C1O)OC(=O)C(OC(=O)CC(C)C)C24` (stereo not drawn): the survivor count by setting is: (dose: 6.0 mg/kg/injection, schedule: Q04DX003 (sc), vehicle: saline + alcohol) 3 of 6 on day 11; (dose: 12.0 mg/kg/injection, schedule: Q04DX003 (sc), vehicle: saline + alcohol) 0 of 6 on day 11; (dose: 24.0 mg/kg/injection, schedule: Q04DX003 (sc), vehicle: saline + alcohol) 0 of 6 on day 11.
Consider `COc1cc([C@@H]2c3cc4c(cc3[C@@H](OC3OC5CO[C@@H](c6cccs6)OC5C(O)C3O)[C@H]3COC(=O)[C@H]23)OCO4)cc(OC)c1O` (stereo partly drawn), for which the T/C (dose: 66.0 mg/kg/injection, schedule: Q01DX010 (sc), vehicle: saline) is 134 % of control.
Take `CCOC(=O)C(C)(C)Oc1ccc(Cl)cc1`: under setting [1], the survivor count is 0 of 6 on day 11.
For `O=c1[nH]c(=O)n([C@H]2CCCO2)cc1F`, the T/C under setting [2] was 132 % of control.
Consider `C1CC[N-]CC1.C1CC[N-]CC1.C1CC[N-]CC1.[Cl][Rh]([Cl])[Cl]`, for which the T/C (dose: 300.0 mg/kg/injection, schedule: Q04DX003 (sc), vehicle: saline) was 129 % of control. The survivor count (dose: 600.0 mg/kg/injection, schedule: Q04DX003 (sc), vehicle: saline) was 3 of 6 on day 11.
For the molecule `COc1cc2c(c(OC)c1OC)-c1ccc(OC)c(=O)cc1[C@@H](NC(=O)CCl)CC2`, for the setting “dose: 10.0 mg/kg/injection, schedule: Q04DX003 (sc), vehicle: saline with Tween-80”, the survivor count was 0 of 6 on day 11.
In the case of `OCCN1CCN(CCCN2c3ccccc3Sc3ccc(C(F)(F)F)cc32)CC1`, the T/C reads like this: (dose: 5.0 mg/kg/injection, schedule: Q01DX010 (sc), vehicle: saline) 138 % of control; (dose: 10.0 mg/kg/injection, schedule: Q01DX010 (sc), vehicle: saline) 137 % of control [2 of 2 alive on day 11].
With `c1ccc2c(NCCCCCCNc3c4ccccc4nc4ccccc34)c3ccccc3nc2c1`, the T/C (dose: 20.0 mg/kg/injection, schedule: Q01DX010 (sc), vehicle: Klucel (hydroxypropylcellulose) (HPC)) was 128 % of control [2 of 2 alive on day 11]. The survivor count was 0 of 3 on day 11 and 1 of 2 on day 11 (dose: 40.0 mg/kg/injection, schedule: Q01DX010 (sc), vehicle: Klucel (hydroxypropylcellulose) (HPC)); 0 of 3 on day 11 (dose: 80.0 mg/kg/injection, schedule: Q01DX010 (sc), vehicle: Klucel (hydroxypropylcellulose) (HPC)).
For the molecule `CC1(O)CC23CC(O)C4(O)C(CC(O)C4(C)C)C(C)(O)C2CCC1C3O` (stereo not drawn), the survivor count (dose: 2.0 mg/kg/injection, schedule: Q04DX003 (sc), vehicle: Klucel (hydroxypropylcellulose) (HPC)) is 0 of 6 on day 11.
With `CCN(CC)CCOC(=O)Cc1cccc2c(=O)cc(-c3ccccc3)oc12`, the T/C under setting [3] is 137 % of control. The survivor count (dose: 400.0 mg/kg/injection, schedule: Q04DX003 (sc), vehicle: saline with Tween-80) is reported as 2 of 6 on day 11.
As to `CCCCNC(C)C1(O)Cc2c(O)c3c(c(O)c2C(OC2CC(N)C(O)C(C)O2)C1)C(=O)c1c(OC)cccc1C3=O` (stereo not drawn), the survivor count (dose: 1200.0 mg/kg/injection, schedule: Q04DX003 (sc), vehicle: water) is reported as 0 of 3 on day 11.
In the case of `CC(Cc1ccc(O)cc1)NCC(O)c1ccc(O)c(O)c1` (stereo not drawn), the survivor count under setting [1] was 3 of 6 on day 11.
Take `Cc1ccc2c(c1)N=C(Nc1ccccc1)N=S2(C)=O` (stereo not drawn): under setting [3], the survivor count is recorded as 3 of 5 on day 11.
On to `N#C[C@H](OC1OC(COC2OC(CO)C(O)C(O)C2O)C(O)C(O)C1O)c1ccccc1` (stereo partly drawn), for which the T/C (dose: 450.0 mg/kg/injection, schedule: Q04DX003 (sc), vehicle: suspension in saline) is 135 % of control and the T/C (dose: 3600.0 mg/kg/injection, schedule: Q04DX003 (sc), vehicle: suspension in saline) is 134 % of control [5 of 6 alive on day 11].
Regarding `CC1=CC(C)(C)Nc2ccc(CSc3ccccc3)cc21`, where the note is “dose: 600.0 mg/kg/injection, schedule: Q01DX010 (sc), vehicle: saline + Tween-80 + alcohol”, the survivor count is recorded as 1 of 6 on day 11.
With `CCOC(OCC)C(=O)OCC(=O)[C@]1(O)Cc2c(O)c3c(c(O)c2[C@@H](OC2CC(N)C(O)C(C)O2)C1)C(=O)c1c(OC)cccc1C3=O` (stereo partly drawn), where the note is “dose: 8.0 mg/kg/injection, schedule: Q01DX010 (sc), vehicle: water”, the survivor count was 0 of 3 on day 11.
As for `COc1cccc2c1C(=O)c1c(O)c3c(c(O)c1C2=O)C[C@@](O)(/C(C)=N\NC(=O)CO)C[C@@H]3OC1CC(N)C(O)C(C)O1` (stereo partly drawn), the survivor count is, setting by setting: (dose: 12.5 mg/kg/injection, schedule: Q01DX010 (sc), vehicle: saline) 0 of 3 on day 11; (dose: 25.0 mg/kg/injection, schedule: Q01DX010 (sc), vehicle: saline) 0 of 3 on day 11; (dose: 50.0 mg/kg/injection, schedule: Q01DX010 (sc), vehicle: saline) 0 of 3 on day 11; (dose: 100.0 mg/kg/injection, schedule: Q01DX010 (sc), vehicle: saline) 0 of 3 on day 11.
With `COc1cc(NS(C)(=O)=O)ccc1Nc1c2ccccc2nc2ccccc12`, the survivor count is listed as 1 of 3 on day 11 (dose: 3.75 mg/kg/injection, schedule: Q01DX010 (sc), vehicle: clinical formulation); 1 of 3 on day 11 (dose: 6.0 mg/kg/injection, schedule: Q01DX010 (sc), vehicle: other); 0 of 3 on day 11 (dose: 7.5 mg/kg/injection, schedule: Q01DX010 (sc), vehicle: lactic acid).
On to `NC(CSC(c1ccccc1)(c1ccccc1)c1ccccc1)C(=O)O` (stereo not drawn), for which the survivor count is, setting by setting: under setting [2], 0 of 3 on day 11; (dose: 200.0 mg/kg/injection, schedule: Q01DX010 (sc), vehicle: Klucel (hydroxypropylcellulose) (HPC)) 0 of 3 on day 11.
In the case of `C[Si](C)(C)n1nnn(-c2ccccc2)c1=O`, the survivor count (dose: 600.0 mg/kg/injection, schedule: Q04DX003 (sc), vehicle: saline with Tween-80) is given as 3 of 6 on day 11.
Turning to `C[C@]12CC[C@H]3[C@@H](CCC4=C[C@@H](OC5OCC(OC6OC(CO)C(O)C(O)C6O)C(O)C5O)CC[C@@]43C=O)[C@@]1(O)CCC2C1=CC(=O)OC1` (stereo partly drawn), under “dose: 15.0 mg/kg/injection, schedule: Q04DX003 (sc), vehicle: Klucel (hydroxypropylcellulose) (HPC)”, the T/C is 128 % of control.

The record behind these values is PubChem BioAssay AID264 (DTP/NCI, 2004).
